# Data from the supplement of paper PMC8728848.
# The list shows a part of the results.
# B1: Clec12b (Mus musculus), Q149M0 (protein)
# chain: MSDEVTYATLMLQDSARVRGNQDGNNLRKEGHPAQSSLWRGAALSLMTLCLVLVTGLVTLATMFLQVSNDINSDSEKLSQLQKSIHPQQDNLSESLNSSRKSLTEESLQSQISALLERQEQMATKLCKEFLIHASDHKCNPCPKTWQWYGNSCYYFSINEEKSWSDSRKDCIDKNATLVKIDSTEERDLLQSQLSLTFSFFWLGLSWNSSGRNWLWEDGSFPPPTLFSDKELASFNGSRDCAYFERGNIYASRCSAEIPWICEKTASLVKTEDLD
# Columns and labels:
# Assay in all cases: glycan array binding signal (z-score within array); higher = stronger binding
# Settings in all cases: glycan notation: IUPAC condensed, linker removed
# [1] = target: Neu5Ac(a2-6)Gal(b1-4)GlcNAc(b1-2)Man(a1-3)[GlcNAc(b1-4)][Neu5Ac(a2-6)Gal(b1-4)GlcNAc(b1-2)Man(a1-6)]Man(b1-4)GlcNAc(b1-4)GlcNAc
# Summary of the method: (§1)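 Glycan array binding is given as a within-array Z-score, which can be read as non-binding when negative. The arrays, 3228 of them, came from the Consortium for Functional Glycomics database and were retained only where the protein sequence was available. Z-scores were averaged across arrays of the same protein sequence at different concentrations or buffers and across linkers.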
# [2] = target: Neu5Ac(a2-6)Gal(b1-4)GlcNAc(b1-2)Man(a1-3)[Man(a1-6)]Man(b1-4)GlcNAc(b1-4)GlcNAc
# Summary of the method: as §1
# [3] = target: Neu5Ac(a2-6)Gal(b1-4)GlcNAc(b1-2)Man(a1-3)[Neu5Ac(a2-3)Gal(b1-4)GlcNAc(b1-2)Man(a1-6)]Man(b1-4)GlcNAc(b1-4)GlcNAc
# Summary of the method: as §1
# [4] = target: Neu5Ac(a2-6)Gal(b1-4)GlcNAc(b1-2)Man(a1-3)[Neu5Ac(a2-6)Gal(b1-4)GlcNAc(b1-2)Man(a1-6)]Man(b1-4)GlcNAc(b1-4)GlcNAc
# Summary of the method: as §1
# [5] = target: Neu5Ac(a2-6)Gal(b1-4)GlcNAc(b1-2)Man(a1-3)[Neu5Ac(a2-6)Gal(b1-4)GlcNAc(b1-2)Man(a1-6)]Man(b1-4)GlcNAc(b1-4)[Fuc(a1-6)]GlcNAc
# Summary of the method: as §1
# [6] = target: Neu5Ac(a2-6)Gal(b1-4)GlcNAc(b1-2)Man(a1-6)Man(b1-4)GlcNAc(b1-4)GlcNAc
# Summary of the method: as §1
# [7] = target: Neu5Ac(a2-6)Gal(b1-4)GlcNAc(b1-2)Man(a1-6)[Gal(b1-4)GlcNAc(b1-2)Man(a1-3)]Man(b1-4)GlcNAc(b1-4)GlcNAc
# Summary of the method: as §1
# [8] = target: Neu5Ac(a2-6)Gal(b1-4)GlcNAc(b1-2)Man(a1-6)[GlcNAc(b1-2)Man(a1-3)]Man(b1-4)GlcNAc(b1-4)GlcNAc
# Summary of the method: as §1
# [9] = target: Neu5Ac(a2-6)Gal(b1-4)GlcNAc(b1-2)Man(a1-6)[Man(a1-3)]Man(b1-4)GlcNAc(b1-4)GlcNAc
# Summary of the method: as §1
# [10] = target: Neu5Ac(a2-6)Gal(b1-4)GlcNAc(b1-2)[Neu5Ac(a2-6)Gal(b1-4)GlcNAc(b1-4)]Man(a1-3)[GlcNAc(b1-4)][Neu5Ac(a2-6)Gal(b1-4)GlcNAc(b1-2)[Neu5Ac(a2-6)Gal(b1-4)GlcNAc(b1-6)]Man(a1-6)]Man(b1-4)GlcNAc(b1-4)GlcNAc
# Summary of the method: as §1
# [11] = target: Neu5Ac(a2-6)Gal(b1-4)GlcNAc(b1-2)[Neu5Ac(a2-6)Gal(b1-4)GlcNAc(b1-4)]Man(a1-3)[GlcNAc(b1-4)][Neu5Ac(a2-6)Gal(b1-4)GlcNAc(b1-4)Man(a1-6)]Man(b1-4)GlcNAc(b1-4)GlcNAc
# Summary of the method: as §1
# [12] = target: Neu5Ac(a2-6)Gal(b1-4)GlcNAc(b1-2)[Neu5Ac(a2-6)Gal(b1-4)GlcNAc(b1-6)]Man(a1-6)[Neu5Ac(a2-6)Gal(b1-4)GlcNAc(b1-2)Man(a1-3)][GlcNAc(b1-4)]Man(b1-4)GlcNAc(b1-4)GlcNAc
# Summary of the method: as §1
# [13] = target: Neu5Ac(a2-6)Gal(b1-4)GlcNAc(b1-3)Gal(b1-3)GlcNAc
# Summary of the method: as §1
# [14] = target: Neu5Ac(a2-6)Gal(b1-4)GlcNAc(b1-3)Gal(b1-4)GlcNAc
# Summary of the method: as §1
# [15] = target: Neu5Ac(a2-6)Gal(b1-4)GlcNAc(b1-3)Gal(b1-4)GlcNAc(b1-2)Man(a1-3)[Neu5Ac(a2-6)Gal(b1-4)GlcNAc(b1-3)Gal(b1-4)GlcNAc(b1-2)Man(a1-6)]GalNAc
# Summary of the method: as §1
# [16] = target: Neu5Ac(a2-6)Gal(b1-4)GlcNAc(b1-3)Gal(b1-4)GlcNAc(b1-3)Gal(b1-4)GlcNAc
# Summary of the method: as §1
# [17] = target: Neu5Ac(a2-6)Gal(b1-4)GlcNAc(b1-3)Gal(b1-4)GlcNAc(b1-3)Gal(b1-4)GlcNAc(b1-2)Man(a1-3)[Neu5Ac(a2-6)Gal(b1-4)GlcNAc(b1-3)Gal(b1-4)GlcNAc(b1-3)Gal(b1-4)GlcNAc(b1-2)Man(a1-6)]GalNAc
# Summary of the method: as §1
# [18] = target: Neu5Ac(a2-6)Gal(b1-4)GlcNAc(b1-3)Gal(b1-4)GlcNAc(b1-3)GalNAc
# Summary of the method: as §1
# [19] = target: Neu5Ac(a2-6)Gal(b1-4)GlcNAc(b1-3)Gal(b1-4)GlcNAc(b1-3)[Neu5Ac(a2-6)Gal(b1-4)GlcNAc(b1-3)Gal(b1-4)GlcNAc(b1-6)]GalNAc
# Summary of the method: as §1
# [20] = target: Neu5Ac(a2-6)Gal(b1-4)GlcNAc(b1-3)Gal(b1-4)GlcNAc(b1-6)[Gal(b1-3)]GalNAc
# Summary of the method: as §1
# [21] = target: Neu5Ac(a2-6)Gal(b1-4)GlcNAc(b1-3)Gal(b1-4)[Fuc(a1-3)]GlcNAc(b1-3)Gal(b1-4)[Fuc(a1-3)]GlcNAc
# Summary of the method: as §1
# [22] = target: Neu5Ac(a2-6)Gal(b1-4)GlcNAc(b1-3)GalNAc
# Summary of the method: as §1
# [23] = target: Neu5Ac(a2-6)Gal(b1-4)GlcNAc(b1-3)[Neu5Ac(a2-6)Gal(b1-4)GlcNAc(b1-6)]GalNAc
# Summary of the method: as §1
# [24] = target: Neu5Ac(a2-6)Gal(b1-4)GlcNAc(b1-6)GalNAc
# Summary of the method: as §1
# [25] = target: Neu5Ac(a2-6)Gal(b1-4)GlcNAc(b1-6)[Gal(b1-3)GlcNAc(b1-3)]Gal(b1-4)Glc
# Summary of the method: as §1
# [26] = target: Neu5Ac(a2-6)Gal(b1-4)GlcNAc(b1-6)[Gal(b1-3)]GalNAc
# Summary of the method: as §1
# [27] = target: Neu5Ac(a2-6)Gal(b1-4)GlcNAc6S
# Summary of the method: as §1
# Neu5Ac(a2-6)GalNAc = target: Neu5Ac(a2-6)GalNAc
# Summary of the method: as §1
# [28] = target: Neu5Ac(a2-6)GalNAc(b1-4)GlcNAc
# Summary of the method: as §1
# [29] = target: Neu5Ac(a2-6)GalNAc(b1-4)GlcNAc6S
# Summary of the method: as §1
# [30] = target: Neu5Ac(a2-6)GlcNAc(b1-4)GlcNAc
# Summary of the method: as §1
binder,measurement,setting,value
B1,glycan array binding signal (z-score),[1],-0.558
same,glycan array binding signal (z-score),[2],-0.656
same,glycan array binding signal (z-score),[3],-0.659
same,glycan array binding signal (z-score),[4],-0.64
same,glycan array binding signal (z-score),[5],-0.061
same,glycan array binding signal (z-score),[6],-0.789
same,glycan array binding signal (z-score),[7],0.626
same,glycan array binding signal (z-score),[8],-0.685
same,glycan array binding signal (z-score),[9],-0.428
same,glycan array binding signal (z-score),[10],-0.381
same,glycan array binding signal (z-score),[11],-0.46
same,glycan array binding signal (z-score),[12],-0.735
same,glycan array binding signal (z-score),[13],-0.688
same,glycan array binding signal (z-score),[14],-0.611
same,glycan array binding signal (z-score),[15],0.298
same,glycan array binding signal (z-score),[16],-0.719
same,glycan array binding signal (z-score),[17],0.134
same,glycan array binding signal (z-score),[18],-0.661
same,glycan array binding signal (z-score),[19],-0.419
same,glycan array binding signal (z-score),[20],-0.651
same,glycan array binding signal (z-score),[21],-0.35
same,glycan array binding signal (z-score),[22],-0.503
same,glycan array binding signal (z-score),[23],-0.368
same,glycan array binding signal (z-score),[24],-0.548
same,glycan array binding signal (z-score),[25],-0.369
same,glycan array binding signal (z-score),[26],-0.463
same,glycan array binding signal (z-score),[27],0.459
same,glycan array binding signal (z-score),Neu5Ac(a2-6)GalNAc,-0.612
same,glycan array binding signal (z-score),[28],-0.692
same,glycan array binding signal (z-score),[29],-0.524
same,glycan array binding signal (z-score),[30],-0.685

# Given bar-delimited: entries from further up.
binder | measurement | setting | value
B1 | glycan array binding signal (z-score) | [2] | -0.656
same | glycan array binding signal (z-score) | [3] | -0.659
same | glycan array binding signal (z-score) | [4] | -0.64
same | glycan array binding signal (z-score) | [5] | -0.061
same | glycan array binding signal (z-score) | [6] | -0.789
